Data reported in article PMC7401805, “Tissue specific requirement of Drosophila Rcd4 for centriole duplication and ciliogenesis” (The Journal of Cell Biology, 2020).
These are yes or no findings as the source states them, for the method shown. In cells and extracts the contact can be indirect. Some entries that bind do so weakly or less than the wild type. Sequences can lack the tags named with a protein.

Experiments:
[1] = target: T1, GST-tagged full-length Ana3 (Drosophila melanogaster, UniProt A1Z8X3 1-1977); assay: pull-down; GST-Ana3 constructs and 6xHis-Rcd4 coexpressed in S. cerevisiae; GST-Ana3 purified from crude extract on glutathione beads (50 mM Tris pH 7.5, 250 mM NaCl, 0.2% NP-40, 5 mM DTT), eluted with 20 mM glutathione; anti-6xHis Western blot
T1 construct: Ana3, Drosophila melanogaster; also called GST::Ana3; GST-Ana3; source: S. cerevisiae (plasmid pMG1): coexpressed with 6xHis-Rcd4, in crude extract; also expressed alone and purified on glutathione beads

[2] = target: T2, GST-tagged Ana3-C1 fragment (amino acids 1195-1977), yeast (Drosophila melanogaster) (UniProt A1Z8X3); assay: as above
T2 sequence: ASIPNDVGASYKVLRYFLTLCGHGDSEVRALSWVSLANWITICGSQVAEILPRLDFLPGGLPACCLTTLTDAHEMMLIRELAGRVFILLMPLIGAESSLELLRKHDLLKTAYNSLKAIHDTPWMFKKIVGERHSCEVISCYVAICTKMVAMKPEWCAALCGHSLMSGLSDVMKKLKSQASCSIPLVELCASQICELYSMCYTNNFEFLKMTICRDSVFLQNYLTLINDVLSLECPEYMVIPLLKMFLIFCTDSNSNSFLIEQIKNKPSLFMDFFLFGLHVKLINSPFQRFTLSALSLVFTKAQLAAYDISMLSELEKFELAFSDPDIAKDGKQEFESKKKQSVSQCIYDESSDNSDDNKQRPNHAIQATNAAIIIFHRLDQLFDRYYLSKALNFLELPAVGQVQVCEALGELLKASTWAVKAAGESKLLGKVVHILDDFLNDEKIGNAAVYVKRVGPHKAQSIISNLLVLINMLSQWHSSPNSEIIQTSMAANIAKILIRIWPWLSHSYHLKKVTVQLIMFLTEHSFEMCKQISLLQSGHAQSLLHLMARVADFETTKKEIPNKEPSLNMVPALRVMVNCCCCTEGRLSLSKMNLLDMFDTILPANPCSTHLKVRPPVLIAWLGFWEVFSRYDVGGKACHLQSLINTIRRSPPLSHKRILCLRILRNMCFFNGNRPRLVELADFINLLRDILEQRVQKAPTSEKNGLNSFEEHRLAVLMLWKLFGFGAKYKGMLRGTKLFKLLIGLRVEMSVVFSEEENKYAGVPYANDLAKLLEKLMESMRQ

B1: 6xHis-tagged Rcd4 (protein, UniProt Q9VLM6 1-199)
chain: MPHKRRNRVHANQRNFTARRVSVAKLSSAPPNVLVESCNGSHADNSSPDSPKAKEGAMTNGKNPEIKLAVPKCNTTVRKQNEAHIISNIKLDMNLNKDSNFIAPQITKKMNFAPNRVVFGVLVPLNVNDSVLVPHNRKPDALKHTSKESESCKAISEPQLADYAEKVDPMIMAVKEPVLHLDWEPGPFDFFGAYRRTYN
B1 was tested. Which binding [1] did it give?
Its binding is “binds”.

And the binding [2]?
The binding was “binds”.
